Measurements taken from publication PMC5385489.
Positions count from the first letter of the chain named. Results are given in words; binding and its absence hold for the method and conditions named. In cells and extracts the contact can be indirect. Some results given as binding are weak or reduced against the parent protein; the word gives no strength. Sequences can lack the tags named with a protein.

Amino acid sequences for entries named in this document (tags omitted). Residues count along the entry.
UniProt P20411, residues 19-86: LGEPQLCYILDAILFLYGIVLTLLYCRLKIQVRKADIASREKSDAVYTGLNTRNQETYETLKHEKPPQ

Assays:
[1] = biological target: T1, myc-tagged rat Mincle R42I mutant (rat) (UniProt Q67EQ1); test: co-IP; anti-myc immunoprecipitates from detergent-soluble lysates of RBL-2H3 cells stably expressing myc-tagged WT Mincle or the R42I mutant; immunoblotting with anti-FcεRIβ and anti-FcεRIγ
T1 sequence: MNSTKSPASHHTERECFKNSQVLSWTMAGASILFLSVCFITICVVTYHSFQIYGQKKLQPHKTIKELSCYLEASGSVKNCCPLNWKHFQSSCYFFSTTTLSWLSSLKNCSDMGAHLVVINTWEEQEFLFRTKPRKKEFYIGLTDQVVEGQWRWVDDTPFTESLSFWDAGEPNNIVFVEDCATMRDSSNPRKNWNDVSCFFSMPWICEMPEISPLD

[2] = biological target: T2, myc-tagged rat wild type (WT) Mincle (macrophage-inducible C-type lectin) (rat) (UniProt Q67EQ1); test: as above
T2 sequence: T1 sequence with I42R

binding [1]: no binding | binding [2]: binds
Substance: γ-subunit of high-affinity IgE receptor (FcεRIγ) (from UniProt P20411 19-86)
